{"source": "paper PMC10135569", "about": "“Does Enhanced Structural Maturity of hiPSC-Cardiomyocytes Better for the Detection of Drug-Induced Cardiotoxicity?” (Biomolecules, 2023)", "system": "hiPSC-CMs (iCell2 Cardiomyocytes) 2D monolayers", "test": "Membrane potential (action potential) recordings with FluoVolt voltage-sensitive dye on the CellOPTIQ platform", "type": "cell-based", "conditions": "Homo sapiens, Cardiomyocyte, 0.5 h, 30 min, delta over DMSO 0.1%", "protocol": "Cardiomyocytes (FUJIFILM Cellular Dynamics, Madison, WI, USA) were kept at −190 °C and prepared for culture as per the manufacturer’s instructions.\nStandard fibronectin vs. Matrix Plus well coating: The cells were cultured using two different coatings in a humidified incubator at 37 °C with 5% CO2. First, 96-well glass-bottomed plates (MatTek, Ashland, MA) were coated with fibronectin ([…] in PBS supplemented with Ca^2+ and Mg^2+; Sigma, St. Louis, MO, USA) (defining FM). Second, CELLvo^TM Matrix Plus (StemBioSys, San Antonio, TX, USA), which were pre-coated on 96 well glass bottom plates and kept at 4 °C. On the day of plating, CELLvo^TM Matrix Plus plates were transferred to room temperature, rehydrated with phosphate buffer saline (PBS), incubated for 1 h at 37 °C, and washed 2× with PBS. Cells were introduced at a density of 50,000 cells/well to allow the formation of a confluent monolayer in each well (defined as MM). The maintenance protocols followed the manufacturer’s instructions and used the iCell^2 Cardiomyocytes Maintenance media for media changes every 2 days. Experiments were performed between days 5 and 6, as recommended by the manufacturers. Before beginning an experiment, cells were washed in serum-free media (SF media) (Fluorobrite DMEM, Gibco, Thermo Fisher Scientific, Horsham, UK).\nThe drug powders were dissolved in DMSO, and four stock concentrations at 1000× the final target concentration were prepared in DMSO. For the experiment, an intermediate concentration 2× the target solution was prepared in SF media. The addition of drugs to the cells was accomplished by replacing 50% of the well volume with the intermediate 2× solution. The same procedure was done for vehicle control using DMSO. […]\nCultures of hiPSC-CMs (5–6 days post-plating) were treated with FluoVolt dye (1:1000, Invitrogen, Cat# F10488) in SF media and incubated for 20 min at 37 °C with 5% CO2 and 80% humidity. […] The FluoVolt signal was recorded from a 0.2 mm × 0.2 mm area using a 40× (numerical aperture: NA 0.6) Excitation wavelength was 470 ± 10 nm using a light-emitting diode (LED), and emitted light was collected by two photomultipliers (PMTs) at 510–560 nm (channel 1) and 590–650 nm (channel 2), respectively. […] In the case of FluoVolt-based action potential recordings, the short wavelength (channel 1, […]) was analyzed for action potential features.\nThe dye FluoVolt is loaded into the surface membrane (outer leaflet), and the dye remains within the membrane for many dots, allowing intermittent voltage measurements over the experimental period. […] Baseline spontaneous electrical activity and the associated contractility signal were recorded by capturing 10 s segments of fluorescent signal and video for 2D plates and 15 s for organoids from each well prior to compound addition. […]", "note": "Like-named read-outs stand apart in the source and are kept apart here."}
{"smiles": "O=C(O)COCCN1CCN(C(c2ccccc2)c2ccc(Cl)cc2)CC1", "note": "(stereo not shown) [Cetirizine]", "values": [{"measurement": "activity at 1 µM", "setting": "FM monolayer, 1 µM, read-out: Trise (%DD)", "value": "114 ± 19.9", "unit": "%"}, {"measurement": "activity at 0.1 µM", "setting": "MM monolayer, 0.1 µM, read-out: APD30 (%DD)", "value": "90 ± 1.8", "unit": "%"}, {"measurement": "activity at 0.3 µM", "setting": "MM monolayer, read-out: APD30 (%DD)", "value": "90 ± 1.2", "unit": "%"}, {"measurement": "activity at 0.3 µM", "setting": "MM monolayer, read-out: Trise (%DD)", "value": "90 ± 11.2", "unit": "%"}]}
